In PubChem BioAssay AID485349 (National Center for Advancing Translational Sciences (NCATS), 2010):
In all, about 320,000 compounds went through this assay and about 620 (0.19%) were called active. Calls come from the whole dose curve; as a rule, active = well fitted activation curve with a large enough effect; inconclusive = small, poorly fitted or top-dose-only effect; inactive = no such curve, though single readings can be large or run the other way. The list shows a part of the results, in another mix than the full data. The source gives no active or inactive call for entries shown without one.

Test: qHTS Assay for Identifying a Potential Treatment of Ataxia-Telangiectasia; note: % of control where 0% means no effect; nearly all actives have a fitted effect of over 45% in size
Conditions: […] A-T fibroblasts, KAP-1 phosphorylation AlphaLISA; at 57.5 µM (top of the series) unless noted
Text: NIH Chemical Genomics Center [NCGC] NIH Molecular Libraries Probe Centers Network [MLPCN] MLPCN Grant: MH089030-01 Assay Submitter (PI): Wei Zheng and Yosef Shiloh Ataxia-telangiectasia (A-T) is a devastating and progressive disease for which, there is no cure. Although A-T is a multisystem disease, it is stereotyped characterized by its neurological symptoms such as truncal ataxia, due to cerebellar cortical degeneration of the Purkinje and granule cells. Other symptoms of A-T are telangiectasias (dilated blood vessels), primary immunodeficiency, marked sensitivity to ionizing radiation (IR), chromosomal instability and predisposition to cancer. The underlying genetic cause of A-T is null mutations in the ATM (A-T mutated) gene. ATM is a nuclear serine/threonine kinase that functions as a master regulator of the cellular responses to double strand breaks (DSBs) in the DNA. Upon activation by DSBs, ATM phosphorylates a plethora of down stream targets, including KAP-1 on […]. KAP-1 phosphorylation occurs shortly in response to DSBs and mediates global chromatin relaxation, which facilitates DSB repair. To screen for small molecules that will compensate for the loss of ATM in cells derived from A-T patients, we monitored KAP-1 phosphorylation as a readout for ATM-like activity using an AlphaLISA assay.
qHTS Assay Protocol: Step,Parameter,Value,Description 1. Cell Plating, 3 ul, 500 cells/well in OPTI-MEM, 1% FBS, 1% Pen/Strep 2. Incubation, 16-24 hr, 37C, 5% CO2, 95% humidity 3. Library compounds, 23 nl, 76.7 - 0.61uM dilution series final concentration 4. Incubation, 60 min, 37C, 5% CO2, 95% humidity 5. Reagent, 1 ul, 1600 ng/ml NCS in PBS + 0.05% BSA + 0.005% Tween 20 6. Incubation, 30 min, 37C, 5% CO2, 95% humidity 7. Reagent, 1 ul, Premixed detection reagents and lysis buffer 8. Reagent, 1 ul, 0.6% Antifoam A 9. Incubation, 6 hr, 25C, 95% humidity 10. Readout, EnVision, EnVision plate reader. AlphaScreen 1536-well protocol Cells were plated using medium-binding white solid-bottom tissue culture treated Kalypsys plates. Multidrop dispense of 3 uL of […] (hTERT immortalized A-T patient fibroblast cells). Detection reagent and lysis buffer was 3.75nM Rab-a-pKAP1 antibody bound to 75 ng/ul AlphaScreen SA donor bead, 3.75 nM Biot-M-a-KAP1 antibody bound to AlphaLISA protein A acceptor bead, 0.5x protease inhibitor cocktail and 0.25x PerkinElmer lysis buffer. EnVision protocol for 1536-well AlphaScreen read (30ms excitation, 100ms read), about 10 min/plate.

Structure (SMILES)	activation
CCc1ccc(N2C(=O)NC(=O)/C(=C\C=C\c3ccco3)C2=O)cc1	-50%
Cc1nc2ccccc2c(=O)n1-c1ccc(F)cc1F	53%
OCC[n+]1c2ccccc2nc2ccc(N3CCOCC3)cc21	inactive: -38%
Cc1ccc(C)c(NP(=O)(Oc2ccccc2)Oc2ccccc2)c1	56.7% [at 57.5 µM, neocarzinostatin DNA damage 30 min before lysis]
CCCCn1c(O)c(C(=O)/C=C/c2c[nH]c3ccccc23)c(=O)[nH]c1=O	63.2%
